Reference: article PMC11106742 (ACS Chemical Biology, 2024)
HELM strings list residues between dots; [ac] is acetyl, [am] amide, other brackets name non-standard units. The same purity stands for every peptide and may come from a single statement.

Assay: general procedure: Fmoc solid-phase peptide synthesis; 2-Chlorotrityl ProTide (CEM, 0.45 mmol/g); Fmoc-L-Ser(2-CTC)-OAll support for amide and dicarba isosteres; DIC (5 equiv) and Oxyma (10 equiv) in DMF; HATU/DIPEA for isosteres
Details: whole synthesis, Shimadzu Nexera HPLC, diode array detector, C8 reversed-phase analytical column, scale of the general procedure 0.1 mmol

Final HPLC purity, >95%:
PEPTIDE1{[NMeLeu].[aIle].S.[aThr].[bAla].[NDodGly]}$PEPTIDE1,PEPTIDE1,1:R1-6:R2$$$V2.0
PEPTIDE1{[NMeLeu].[aIle].S.[aThr].[bAla].[NEtPEG3Gly]}$PEPTIDE1,PEPTIDE1,1:R1-6:R2$$$V2.0
PEPTIDE1{[NMeLeu].[aIle].S.[aThr].[bAla].[NOctAla]}$PEPTIDE1,PEPTIDE1,1:R1-6:R2$$$V2.0
PEPTIDE1{[NMeLeu].[aIle].S.[aThr].[bAla].[NOctGly]}$PEPTIDE1,PEPTIDE1,1:R1-6:R2$$$V2.0
